The source of these data is article PMC12175362.

Amino acid sequences for entries named in this document (tags omitted).
UniProt P06733: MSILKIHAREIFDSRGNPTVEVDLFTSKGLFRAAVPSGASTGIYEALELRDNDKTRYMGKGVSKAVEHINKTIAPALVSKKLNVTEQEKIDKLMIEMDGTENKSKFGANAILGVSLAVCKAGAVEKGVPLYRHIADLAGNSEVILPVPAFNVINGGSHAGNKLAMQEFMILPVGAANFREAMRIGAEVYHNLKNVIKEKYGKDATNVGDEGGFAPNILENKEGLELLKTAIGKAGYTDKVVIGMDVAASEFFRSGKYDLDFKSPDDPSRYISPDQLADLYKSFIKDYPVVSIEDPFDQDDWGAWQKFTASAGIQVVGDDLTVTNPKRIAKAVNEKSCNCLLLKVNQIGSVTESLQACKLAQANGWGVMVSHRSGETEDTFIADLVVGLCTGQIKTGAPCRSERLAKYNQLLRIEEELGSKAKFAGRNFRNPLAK

No constants are given. Whether binding was seen depends on the method and setting. Binding seen in cells or lysates may run through a third protein. Some results given as binding are weak or reduced against the parent protein; the word gives no strength. Where a sequence is shown, tags or fusion partners need not be part of it.

This experiment concerns the target Myc-ENO1 (human) (UniProt P06733). The experiment in a line: co-IP; HEK-293T cells co-transfected with Flag-DCDC2 constructs and Myc-ENO1; immunoprecipitated with anti-Myc antibody.

B1: Flag-DCDC2 (protein, UniProt Q9UHG0 1-476)
chain: MSGSSARSSHLSQPVVKSVLVYRNGDPFYAGRRVVIHEKKVSSFEVFLKEVTGGVQAPFGAVRNIYTPRTGHRIRKLDQIQSGGNYVAGGQEAFKKLNYLDIGEIKKRPMEVVNTEVKPVIHSRINVSARFRKPLQEPCTIFLIANGDLINPASRLLIPRKTLNQWDHVLQMVTEKITLRSGAVHRLYTLEGKLVESGAELENGQFYVAVGRDKFKKLPYSELLFDKSTMRRPFGQKASSLPPIVGSRKSKGSGNDRHSKSTVGSSDNSSPQPLKRKGKKEDVNSEKLTKLKQNVKLKNSQETIPNSDEGIFKAGAERSETRGAAEVQEDEDTQVEVPVDQRPAEIVDEEEDGEKANKDAEQKEDFSGMNGDLEEEGGREATDAPEQVEEILDHSEQQARPARVNGGTDEENGEELQQVNNELQLVLDKERKSQGAGSGQDEADVDPQRPPRPEVKITSPEENENNQQNKDYAAVA
Regarding B1, the binding result is on record as “binds”.

B2: Flag-DCDC2 1–115 (domain or fragment, UniProt Q9UHG0 1-115)
chain: MSGSSARSSHLSQPVVKSVLVYRNGDPFYAGRRVVIHEKKVSSFEVFLKEVTGGVQAPFGAVRNIYTPRTGHRIRKLDQIQSGGNYVAGGQEAFKKLNYLDIGEIKKRPMEVVNT
Regarding B2, the binding entry is “binds”.
